Measurements published in PubChem BioAssay AID540256 (National Center for Advancing Translational Sciences (NCATS), 2011).
Several values for one entry are separate records, joined by “and”; a condition that tells them apart may be missing. Equal values may be shown once. About 3,700 (1.2%) of roughly 300,000 compounds were called active. This list was built around the results that the source calls inconclusive (neither active nor inactive); the mix of calls is not that of the screen. Calls follow the shape of the full dose curve; tested in HEK293 cells. A potency beside an inconclusive call is a rough fit, not a confirmed value.

test: qHTS for Inhibitors of binding or entry into cells for Lassa Virus; conditions: Lassa virus pseudotype entry inhibition, cell reporter; activity change, negative = inhibition: at 37.9 µM (top of the series) unless noted; also: nearly all actives have a fitted effect of over 50% in size
% is scaled to controls: 0 for no effect and ±100 for the full control effect; potency is read from the fitted curve at half-maximal effect.

Compound | Potency | activity change, negative = inhibition
CC(C)(C)OC(=O)N1CCC(c2c(C(=O)NCCCN3CCc4ccccc4C3)cnn2-c2ccccc2)CC1 | inconclusive: 11.2 µM [inhibitor, single point] | 
COc1ccc(-c2c(C)c3cc(OC(=O)N4CCOCC4)ccc3oc2=O)cc1 |  | inactive: -28.1% [at 46.1 µM]
CC(C)(C)C1CCc2c(sc(NC(=O)C3CCCO3)c2C(N)=O)C1 (centres undefined) | active: 17.8 µM | 
CCOc1ccccc1NC(=O)Cn1c(=O)n(CCCC(=O)NCCc2ccc(C)cc2)c(=O)c2ccccc21 |  | inactive: 2.84% [at 46.1 µM]
O=C(Nc1nc2ccc(Cl)cc2s1)c1ccc(Br)o1 | inconclusive: 0.316 µM [activator, full curve, poor fit] | 
COc1ccc(OC)c(NC(=O)CCc2c(C)nn(-c3ccc(N4CCCC4)nn3)c2C)c1 | inconclusive: 3.16 µM [inhibitor, partial curve, poor fit] | 
Cc1oc(S(=O)(=O)N2CCCCC2)cc1NC(=O)Nc1ccccc1 |  | inactive: -9.98%
CCOC(=O)c1ccc(NC(=S)NCC(O)c2ccccc2)cc1 (centres undefined) | inconclusive: 3.98 µM [inhibitor, full curve, poor fit] | 
Cc1ccccc1C(=O)Nc1cccc(-c2cn3ccccc3n2)c1 | inconclusive: 25.1 µM [inhibitor, single point] | 
CCN(CC)C(=O)C1CCCN(c2ncnc3c2c(-c2ccccc2)cn3-c2cccc(C)c2)C1 (centres undefined) | inconclusive: 7.08 µM [inhibitor, partial curve, poor fit] | 
c1cncc(-c2nc(N3CCCCCC3)c3ccccc3n2)c1 | inconclusive: 5.62 µM [inhibitor, partial curve, poor fit] | 
c1ccc2[nH]c(NN=C3CCCCCC3)nc2c1 |  | inactive: 27.5%
O=C1NN(c2ccccc2)C(=O)/C1=C\c1ccc(-c2cc([N+](=O)[O-])ccc2O)o1 |  | inactive: -6.62% [at 46.1 µM]
COc1cccc(-n2nc(C)c3c(NN=C(C)c4ccncc4)ncnc32)c1 | inconclusive: 14.1 µM [activator, partial curve] | 
O=C(N/N=C/c1ccc(-c2ccccc2Cl)o1)c1ccccc1 | inconclusive: 35.5 µM [inhibitor, single point] | 
Cc1cccc(NC(=O)c2cnc3n(c2=O)CCS3)c1 | inconclusive: 23.1 µM [inhibitor, partial curve, poor fit] | 
CSc1ccc(CCNC(=O)CCc2nnc3ccc(N4CCC5(CC4)OCCO5)nn23)cc1 |  | inactive: -26.2% [at 46.1 µM]
O=C(NC(Cc1ccccc1)C(=O)O)/C(=C/c1ccco1)NC(=O)c1cccc(Br)c1 (centres undefined) |  | inactive: 5.4%
CN(C)CCC1c2ccc(Cl)cc2CCc2cccnc21 (centres undefined) (tested in a mixture with another compound) | inconclusive: 11.2 µM [inhibitor, partial curve, poor fit] | 
CCn1c(C)nnc1SCC(=O)NC1CCCCCC1 |  | inactive: -5.19% [at 46.1 µM]
O=S(=O)(c1cccs1)N1CCN(CC(O)COc2cccc(Br)c2)CC1 (centres undefined) |  | inactive: -0.601%
Cc1ccc(-c2ccc(C(=O)NCc3ccc(Cl)cc3)o2)c2ccccc12 | active: 3.15 µM and active: 20.6 µM | 

Some of the entries so far, as a markdown table.

| Compound | Potency | activity change, negative = inhibition |
| --- | --- | --- |
| CC(C)(C)C1CCc2c(sc(NC(=O)C3CCCO3)c2C(N)=O)C1 (centres undefined) | active: 17.8 µM |  |
| CCOc1ccccc1NC(=O)Cn1c(=O)n(CCCC(=O)NCCc2ccc(C)cc2)c(=O)c2ccccc21 |  | inactive: 2.84% [at 46.1 µM] |

Continuation.

Compound | Potency | activity change, negative = inhibition
CCOC(=O)N1CCN(Cc2nc(N)nc(Nc3ccc(Oc4ccccc4)cc3)n2)CC1 | inconclusive: 12.6 µM [inhibitor, partial curve, poor fit] | 
O=C(Nc1ccccc1Sc1ccccc1)c1ccccc1F | inconclusive: 3.16 µM [inhibitor, partial curve, poor fit] | 
Cc1ccc(C(=O)N/N=C\c2cc(Br)c(Br)o2)cn1 | inconclusive: 11.2 µM [inhibitor, partial curve, poor fit] | 
CCOC(=O)Nc1ccc2c(COC(=O)C(NS(=O)(=O)c3ccc(Cl)cc3)C(C)O)cc(=O)oc2c1 (centres undefined) | inconclusive: 3.16 µM [activator, partial curve, poor fit] | 
COc1ncnc2c1oc1nc(CC(C)C)c3c(c12)CC(C)(C)OC3 |  | inactive: 15.9%
Cc1cc(C)nc(SCc2nnc(SCC(=O)N3CCOCC3)o2)n1 | inconclusive: 29.1 µM [activator, single point] | 
Cc1c(CN(C)Cc2cn(C)nc2-c2ccccc2F)[nH]c2ccccc12 |  | inactive: -11.6%
CCc1ccc2occ(CC(=O)Nc3ccc(C)c(C)c3)c2c1 | inconclusive: 25.1 µM [inhibitor, single point] | 
Clc1ccc(SCc2cn3ccsc3n2)cc1 | inconclusive: 14.6 µM [activator, partial curve, poor fit] | 
O=C(NC(=S)Nc1ccc(Br)cn1)c1cccnc1 |  | inactive: -1.67% [at 46.1 µM]
COc1ccc(/C=N/NC(=O)c2cc3c(OC)ccc(OC)c3[nH]2)cc1O | inconclusive: 11.2 µM [inhibitor, partial curve, poor fit] | 
CCNC(=O)COC(=O)c1cccc(Br)c1 |  | inactive: -9.86%
COc1ccc(S(=O)(=O)Nc2cc(C)c(O)cc2C(C)C)cc1 | inconclusive: 11.6 µM [inhibitor, partial curve, poor fit] | 
O=C(CCc1ccccc1)NNC(=O)c1ccccc1C(=O)O | active: 4.61 µM | 
COC(=O)c1ccc(CSc2cc(C)c3cccc(C)c3n2)o1 | inconclusive: 14.1 µM [inhibitor, single point] | 
O=C(NC1CCCC1)C1c2ccccc2C(=O)N1C1CCCCC1 (centres undefined) | inconclusive: 18.3 µM [activator, single point] | 
CSc1ccc(C(=S)N2CCN(Cc3ccccc3)CC2)cc1 | active: 16.4 µM | 
Cc1cc([N+](=O)[O-])nn1Cc1ccc(C(=O)N/N=C/c2ccc(O)cc2O)cc1 | active: 3.55 µM | 
C=C(C)CSc1nnc([C@@H](N)Cc2ccccc2)o1 |  | inactive: 37.2%
C=CCN1CCS(=O)(=O)N(Cc2ccccc2)[C@@H](C(C)C)C1=O | inconclusive: 2.5 µM [activator, single point] | 
CCc1nc(Nc2ccc(OC)c(OC)c2)c2nnn(Cc3ccccc3Cl)c2n1 | inconclusive: 11.2 µM [inhibitor, partial curve, poor fit] | 
CC1CCCC(NC(=O)COC(=O)c2ccc(N(C)C)cc2)C1C (centres undefined) | inconclusive: 0.73 µM [inhibitor, partial curve, poor fit] | 
